According to US20110166331A1:
No constants are given. Whether binding was seen depends on the method and setting. Some binding calls cover weakened binding; strength is not graded here.

Protein sequences, listed by entry. Tags and fused reporters are not part of them. Lines headed by an entry give the natural chain unless they say otherwise; changes in a name come on top.
UniProt Q96F46: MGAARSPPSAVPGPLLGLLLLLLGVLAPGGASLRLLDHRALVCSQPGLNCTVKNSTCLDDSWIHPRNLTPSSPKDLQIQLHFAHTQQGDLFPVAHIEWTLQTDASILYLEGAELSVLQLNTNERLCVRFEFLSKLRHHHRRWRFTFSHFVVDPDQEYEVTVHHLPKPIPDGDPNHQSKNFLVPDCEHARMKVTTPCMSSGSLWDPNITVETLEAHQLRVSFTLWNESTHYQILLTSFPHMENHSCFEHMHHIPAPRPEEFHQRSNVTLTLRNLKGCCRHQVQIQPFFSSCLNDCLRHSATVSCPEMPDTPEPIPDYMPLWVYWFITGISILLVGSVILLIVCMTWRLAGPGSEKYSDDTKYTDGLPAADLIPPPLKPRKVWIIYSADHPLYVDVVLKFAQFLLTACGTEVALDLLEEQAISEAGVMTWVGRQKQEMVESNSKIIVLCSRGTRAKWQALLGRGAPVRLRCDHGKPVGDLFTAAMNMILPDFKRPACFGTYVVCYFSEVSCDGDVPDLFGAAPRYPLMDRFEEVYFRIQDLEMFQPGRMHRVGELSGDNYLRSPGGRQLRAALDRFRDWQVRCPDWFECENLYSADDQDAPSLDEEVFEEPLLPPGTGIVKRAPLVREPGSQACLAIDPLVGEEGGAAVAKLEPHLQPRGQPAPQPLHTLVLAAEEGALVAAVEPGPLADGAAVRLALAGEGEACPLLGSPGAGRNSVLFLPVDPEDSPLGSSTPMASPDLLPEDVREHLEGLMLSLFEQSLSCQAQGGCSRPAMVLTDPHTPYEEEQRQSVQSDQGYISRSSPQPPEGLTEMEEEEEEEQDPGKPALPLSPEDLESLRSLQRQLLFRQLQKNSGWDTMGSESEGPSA

Target: huIL-17RA-FLAG-polyHis (human) (UniProt Q96F46)
Assay: multiplexed Luminex bead cross-competition

B1: AMH7/AML7 (antibody, IgG2, V domains shown)
VH: QVQLVQSGAEVKKPGASVKVSCKASGYTLTRYGISWVRQAPGQGLEWMGWISAYNGNTNYAQKLQGRVTMTTDTSTSTAYMELRSLRSDDTAVYYCARRDYDILTGYYNGFDPWGQGTLVTVSS
VL: DIQMTQSPSSLSASVGDRVTITCRASQGIRNDLGWYQQKPGKAPKRLIYAASSLQSGVPSRFSGSGSGTEFTLTISSLQPEDFATYYCLQHKSYPLTFGGGTKVEIK
For B1, the binding was “binds”.

B2: AMH6/AML6 (antibody, IgG2, V domains shown)
VH: B1 VH
VL: B1 VL
With B2 the binding was “binds”.
